According to PubChem BioAssay AID540276 (National Center for Advancing Translational Sciences (NCATS), 2011):
Several values for one entry are separate records, joined by “and”; a condition that tells them apart may be missing. Identical values can stand only once. Among all 300,000 compounds or so, about 5,400 (1.8%) were called active. The inconclusive results got no clear call from the source; some entries with a clear call stand among them for comparison. The call rests on the fitted dose curve; tested in HEK293 cells. Where the call is inconclusive, the potency comes from a doubtful curve fit.

test: qHTS for inhibitors of binding or entry into cells for Marburg Virus; conditions: Marburg virus pseudotyped entry inhibition, cell reporter; series mostly up to 37.8 µM
Potency means the concentration at half of the fitted maximal effect.

Row | Structure (SMILES) | Potency
1 | CC(C)(C)c1cc(NC(=O)C2CCCO2)no1 (stereo not drawn) | inconclusive: 2.59 µM [activator, partial curve, poor fit]
2 | CN(C)N1C(N)=C(C#N)C(c2ccc3c(c2)OCO3)C2=C1CCCC2=O (stereo not drawn) | inconclusive: 1.78 µM [inhibitor, full curve]
3 | CC(C)C1NC(=O)[C@H](CCCCN)NC(=O)[C@@H](Cc2c[nH]c3ccccc23)NC(=O)[C@H](Cc2ccc(O)cc2)NC(=O)[C@H](C)N(C)C(=O)[C@H](Cc2ccccc2)NC1=O (stereo partly drawn) | inconclusive: 0.0045 µM [inhibitor, full curve, poor fit]
4 | C/C(CC(=O)Nc1ccc(C)c(Cl)c1)=N\NC(=O)c1ccco1 | inconclusive: 2.51 µM [activator, full curve]
5 | COc1cccc(NC(=O)Cn2c(=O)n(Cc3ccc(C(=O)NCc4ccc5c(c4)OCO5)cc3)c(=O)c3ccccc32)c1 | inactive
6 | CCOC(=O)C1(C)NC(c2ccc(OC)cc2OC)C2C(=O)N(c3cccc(OC)c3)C(=O)C21 (stereo not drawn) | inconclusive: 35.5 µM [inhibitor, single point]
7 | CCc1c(C)nc2ncnn2c1N1CCC(C(=O)NCc2cccc(OC)c2)CC1 | inconclusive: 25.9 µM [inhibitor, single point]
8 | O=c1c(O)c(-c2ccc(O)c(O)c2)oc2cc(O)cc(O)c12 | inconclusive: 2.81 µM [activator, full curve, poor fit] and inconclusive: 17.7 µM [inhibitor, partial curve, poor fit]
9 | CCN1CCN(c2nc3sc4c(c3c(=O)n2-c2ccc(OC)cc2)CCCCC4)CC1 | inconclusive: 16.4 µM [inhibitor, single point]
10 | Cc1occc1-c1n[nH]c(=S)n1C | inconclusive: 6.31 µM [inhibitor, single point]
11 | CCN(CC)S(=O)(=O)c1ccc(-c2csc(=Nc3cccc(C(F)(F)F)c3)n2Cc2ccc3c(c2)OCO3)cc1 | inconclusive: 35.5 µM [inhibitor, single point]
12 | COC(=O)CCN(C(=O)c1cccc(OC(C)=O)c1)c1ccccn1 | inconclusive: 3.55 µM [inhibitor, partial curve, poor fit]
13 | Cc1cc(C)n2nc(CCc3ccccc3)nc2n1 | inconclusive: 14.6 µM [activator, single point]
14 | COc1cc(Cl)ccc1OCc1cc(C(=O)NCc2cc(C(C)C)no2)no1 | inactive
15 | CCn1cc(C2=NC(CC(C)C)CO2)c2ccccc21 (stereo not drawn) | inactive
16 | O=C(COC(=O)CCC(=O)c1ccc(F)cc1)Nc1ccc(F)cc1F | inconclusive: 3.98 µM [activator, single point]
17 | N#Cc1ccc(CC(=O)c2ccccc2)[nH]c1=O | inactive
18 | CC(=O)Nc1ccc(C(=O)NCCc2ccccc2)cc1 | inactive
19 | CCOC(=O)c1c(-n2c(C)cc(/C=C3/C(=O)NC(=O)N(CC)C3=O)c2C)sc2c1CCCC2 | inactive
20 | Cc1cccc(N2CCN(C(=O)C(C)n3nc(C)n4c(cc5occc54)c3=O)CC2)c1C (stereo not drawn) | inactive and inconclusive: 7.08 µM [inhibitor, partial curve, poor fit]
21 | COc1ccc2[nH]cc(CCNC(=S)NCCc3ccccc3)c2c1 | inconclusive: 7.08 µM [inhibitor, full curve, poor fit]

Row | Structure (SMILES) | Potency
22 | Cc1ccc(N2C(S)=C(C#N)C(=O)NC2c2ccco2)cc1 (stereo not drawn) | inconclusive: 8.91 µM [activator, partial curve, poor fit]
23 | O=C(N/N=C/c1c(O)n(-c2ccccc2)c(=O)[nH]c1=O)c1ccncc1 | inconclusive: 31.6 µM [activator, partial curve, poor fit]
24 | COc1ccc2nc(NC(=O)CSc3n[nH]c(N)n3)sc2c1 | inconclusive: 35.5 µM [inhibitor, single point]
25 | Cc1cccc(NCc2ccccc2OCc2ccccc2F)c1 | inconclusive: 15.8 µM [activator, single point]
26 | CCCN1CCOC(CC(=O)Nc2ccc([N+](=O)[O-])cc2)C1=O (stereo not drawn) | inactive
27 | Cc1ccc(C(=O)OCC(=O)N(CC(C)C)c2c(N)n(Cc3ccccc3)c(=O)[nH]c2=O)s1 | inconclusive: 7.08 µM [activator, full curve]
28 | Cc1ccc(C(=O)OCc2cc3ccccc3[nH]c2=O)cc1 | inactive
29 | COc1ccc(C(NC(C)=O)c2ccc3cccnc3c2O)c(OC)c1 (stereo not drawn) | inconclusive: 3.98 µM [inhibitor, full curve, poor fit]
30 | Cc1c(NC(=S)NC(=O)c2cccc3ccccc23)cccc1C(=O)O | inconclusive: 35.5 µM [activator, single point]
31 | O=C1NC(c2cccc(Cl)c2)Nc2ccccc21 (stereo not drawn) | inconclusive: 12.6 µM [inhibitor, single point]
32 | Oc1ccccc1-c1nc(NCc2ccccc2)c2ccccc2n1 | inconclusive: 12.6 µM [inhibitor, single point]
33 | COCC(=O)NCCc1ccc(S(N)(=O)=O)cc1 | inconclusive: 0.82 µM [activator, full curve, poor fit]
34 | COc1ccc(C)cc1N(C(=O)c1ccco1)C(C(=O)NC1CCCC1)c1cc(OC)c(OC)c(OC)c1 (stereo not drawn) | inconclusive: 11.2 µM [inhibitor, partial curve, poor fit]
35 | Cn1c2ccccc2c2cc(/C=N/NC(=O)c3ccc(N)cc3)ccc21 | inconclusive: 12.6 µM [inhibitor, single point]
36 | O=C(NCCCN1CCOCC1)c1cc2c(s1)CSC2 | inactive
37 | O=C(Nc1cccc(-c2cnc3ccccc3n2)c1)c1ccccc1 | inactive
38 | CCCCn1c(=O)[nH]c(=O)c2c1nc(-c1ccccn1)n2CC | inactive
39 | CC1CCCCN1Cc1c(O)ccc2c(=O)c(-c3cccc(Cl)c3)c(C(F)(F)F)oc12 (stereo not drawn) | inconclusive: 2.82 µM [activator, single point]
40 | CCOc1ccc(/C=N/OCC(=O)NCc2ccco2)cc1 | inconclusive: 0.316 µM [inhibitor, partial curve, poor fit]
41 | c1ccc(-c2nc(N3CCCCCC3)c3ccccc3n2)nc1 | inconclusive: 2.24 µM [inhibitor, full curve, poor fit]
42 | CCC(C)c1ccccc1NC(=O)CN1CCN(C/C=C/c2ccccc2)CC1 (stereo not drawn) | inconclusive: 0.631 µM [inhibitor, full curve, poor fit]

Row | Structure (SMILES) | Potency
43 | Cc1nn(-c2ccccc2)c(/N=C/c2ccc(O)cc2)c1-c1ccccc1 | inconclusive: 3.55 µM [activator, single point]
44 | COc1ccccc1CC(=O)N1CCCc2ccccc21 | inactive
45 | Cc1cc(OC(=O)c2ccc(S(=O)(=O)N3CCOCC3)cc2)c([N+](=O)[O-])c(=O)[nH]1 | inconclusive: 3.55 µM [inhibitor, single point]
46 | O=c1oc2ccc(Br)cc2cc1S(=O)(=O)c1ccc(F)cc1 | inactive
47 | CSc1ccccc1C(=O)Nc1cccc([N+](=O)[O-])c1 | inconclusive: 2.82 µM [activator, full curve, poor fit]
48 | O=c1cc(-c2ccccc2)[nH]n1-c1ccccc1 | inconclusive: 31.6 µM [inhibitor, single point]
49 | Cc1oc(-c2ccc(Cl)cc2)nc1CN1CCC(C(=O)NCc2cccs2)CC1 | inconclusive: 32.6 µM [inhibitor, partial curve, poor fit]
50 | Cc1ccc(N/N=C/c2c(O)cc(C)oc2=O)cc1 | inconclusive: 35.5 µM [inhibitor, single point]
51 | COCC(=O)Nc1cccc(C(F)(F)F)c1 | inconclusive: 12.6 µM [inhibitor, single point]
52 | COc1ccccc1CNC(=O)C(Cc1ccccc1)NS(=O)(=O)c1ccc2c(c1)oc(=O)n2C (stereo not drawn) | inconclusive: 0.891 µM [inhibitor, full curve, poor fit]
53 | O=C(Cc1c[nH]c2ccccc12)NCc1ccc(Cl)cc1Cl | inconclusive: 6.51 µM [activator, single point]
54 | Cc1ccc(C)c(C(=O)CN2C(=O)c3ccccc3C2=O)c1 | inactive
55 | COc1ccc(N2CCN(C(=O)COC(=O)/C=C/c3ccc(OC(F)F)cc3)CC2)cc1 | inconclusive: 5.62 µM [activator, single point]
56 | COC(=O)CN1C(=O)C2(C(C#N)=C(N)Oc3c2c(C)nn3-c2ccccc2)c2ccccc21 (stereo not drawn) | inconclusive: 18.3 µM [inhibitor, single point]
57 | Cc1ccc(C2/C(=C(\O)c3cnn(-c4ccccc4)c3C)C(=O)C(=O)N2CCN(C)C)o1 (stereo not drawn) | inconclusive: 4.47 µM [activator, full curve, poor fit]
58 | COc1ccc(C(=O)/C=C/c2ccc(N(C)C)cc2)c(OC)c1 | active: 7.08 µM
59 | CC(C)CC1NC(=O)N(CC(=O)N2CCN(S(=O)(=O)c3ccccc3)CC2)C1=O (stereo not drawn) | inconclusive: 14.1 µM [activator, partial curve, poor fit]
60 | COc1ccc(OC)c(S(=O)(=O)N2CCC(C(=O)Nc3cccc(C(F)(F)F)c3)CC2)c1 | inconclusive: 22.4 µM [inhibitor, single point]
61 | Cc1ccc(Nc2nc(N)nc(CSc3nncn3C)n2)cc1 | inconclusive: 7.94 µM [inhibitor, partial curve]
62 | CC(C)c1nnc(NC(=O)COc2ccc3c(c2)OCO3)s1 | inconclusive: 14.1 µM [inhibitor, single point]
63 | CCOc1ccc2nc(SCC(=O)Nc3cc4c(cc3C(C)=O)OCO4)[nH]c2c1 | inactive
